# Primary screen of a compound library

Sequences of proteins named here, by UniProt entry; tags and fusion partners are left off. Residues count along the entry.
UniProt I6X8D2, whole entry: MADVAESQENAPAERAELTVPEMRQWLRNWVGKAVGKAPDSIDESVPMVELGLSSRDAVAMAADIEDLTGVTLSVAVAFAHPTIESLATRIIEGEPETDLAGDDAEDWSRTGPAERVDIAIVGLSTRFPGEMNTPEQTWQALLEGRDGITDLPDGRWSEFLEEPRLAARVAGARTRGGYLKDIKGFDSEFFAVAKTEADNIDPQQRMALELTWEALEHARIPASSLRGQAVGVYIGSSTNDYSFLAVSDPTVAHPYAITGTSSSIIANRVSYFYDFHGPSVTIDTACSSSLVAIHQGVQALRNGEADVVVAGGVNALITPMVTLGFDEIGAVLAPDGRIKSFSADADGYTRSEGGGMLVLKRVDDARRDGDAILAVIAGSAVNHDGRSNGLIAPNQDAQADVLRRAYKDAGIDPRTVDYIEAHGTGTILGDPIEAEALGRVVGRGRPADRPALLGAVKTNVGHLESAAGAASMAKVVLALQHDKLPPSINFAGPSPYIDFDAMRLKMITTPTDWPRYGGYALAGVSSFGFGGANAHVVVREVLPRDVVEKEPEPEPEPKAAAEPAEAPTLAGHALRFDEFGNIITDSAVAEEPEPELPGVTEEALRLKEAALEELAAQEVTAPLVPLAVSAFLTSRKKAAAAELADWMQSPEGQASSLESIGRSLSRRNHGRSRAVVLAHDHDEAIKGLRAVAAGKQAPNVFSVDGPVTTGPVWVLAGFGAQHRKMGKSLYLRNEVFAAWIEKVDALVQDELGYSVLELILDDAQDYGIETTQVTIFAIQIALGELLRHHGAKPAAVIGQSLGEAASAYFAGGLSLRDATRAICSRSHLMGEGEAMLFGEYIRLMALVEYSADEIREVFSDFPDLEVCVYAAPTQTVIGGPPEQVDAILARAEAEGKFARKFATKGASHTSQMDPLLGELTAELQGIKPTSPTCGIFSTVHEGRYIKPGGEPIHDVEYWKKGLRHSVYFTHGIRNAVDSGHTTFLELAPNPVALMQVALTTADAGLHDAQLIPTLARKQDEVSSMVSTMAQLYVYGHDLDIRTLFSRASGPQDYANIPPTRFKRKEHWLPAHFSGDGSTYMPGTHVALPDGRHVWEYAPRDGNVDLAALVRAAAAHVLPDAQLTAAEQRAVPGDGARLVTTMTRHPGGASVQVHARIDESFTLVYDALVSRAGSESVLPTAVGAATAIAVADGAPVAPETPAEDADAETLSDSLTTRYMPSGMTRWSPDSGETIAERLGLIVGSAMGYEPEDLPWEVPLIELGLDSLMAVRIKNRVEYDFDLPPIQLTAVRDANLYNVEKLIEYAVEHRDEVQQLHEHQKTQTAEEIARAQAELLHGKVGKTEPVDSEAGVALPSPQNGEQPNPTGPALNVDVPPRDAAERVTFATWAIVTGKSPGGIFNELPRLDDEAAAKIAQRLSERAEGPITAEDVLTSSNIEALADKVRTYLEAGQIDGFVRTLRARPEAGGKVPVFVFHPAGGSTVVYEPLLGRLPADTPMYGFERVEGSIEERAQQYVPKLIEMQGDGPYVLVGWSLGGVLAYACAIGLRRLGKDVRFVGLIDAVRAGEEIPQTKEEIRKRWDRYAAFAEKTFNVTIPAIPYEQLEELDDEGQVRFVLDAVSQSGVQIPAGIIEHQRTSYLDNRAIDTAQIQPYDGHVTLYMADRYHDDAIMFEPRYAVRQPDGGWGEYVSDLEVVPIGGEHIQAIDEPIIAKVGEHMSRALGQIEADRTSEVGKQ
UniProt Q8IDJ8, 1-583: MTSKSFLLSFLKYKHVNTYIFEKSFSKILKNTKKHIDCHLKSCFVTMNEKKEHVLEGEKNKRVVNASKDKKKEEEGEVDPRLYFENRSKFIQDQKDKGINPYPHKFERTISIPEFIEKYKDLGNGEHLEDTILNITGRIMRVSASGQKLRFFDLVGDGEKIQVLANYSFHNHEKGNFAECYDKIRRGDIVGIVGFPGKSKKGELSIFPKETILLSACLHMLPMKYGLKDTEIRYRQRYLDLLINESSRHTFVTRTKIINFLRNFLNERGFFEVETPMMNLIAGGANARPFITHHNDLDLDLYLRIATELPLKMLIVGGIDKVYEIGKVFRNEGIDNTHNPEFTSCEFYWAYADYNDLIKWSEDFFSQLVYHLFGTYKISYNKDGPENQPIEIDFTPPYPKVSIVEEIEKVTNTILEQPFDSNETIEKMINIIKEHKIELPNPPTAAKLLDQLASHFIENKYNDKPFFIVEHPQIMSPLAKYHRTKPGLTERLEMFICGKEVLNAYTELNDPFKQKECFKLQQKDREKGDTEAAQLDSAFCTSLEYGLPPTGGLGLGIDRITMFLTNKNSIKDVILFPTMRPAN
UniProt A4I591, 1-473: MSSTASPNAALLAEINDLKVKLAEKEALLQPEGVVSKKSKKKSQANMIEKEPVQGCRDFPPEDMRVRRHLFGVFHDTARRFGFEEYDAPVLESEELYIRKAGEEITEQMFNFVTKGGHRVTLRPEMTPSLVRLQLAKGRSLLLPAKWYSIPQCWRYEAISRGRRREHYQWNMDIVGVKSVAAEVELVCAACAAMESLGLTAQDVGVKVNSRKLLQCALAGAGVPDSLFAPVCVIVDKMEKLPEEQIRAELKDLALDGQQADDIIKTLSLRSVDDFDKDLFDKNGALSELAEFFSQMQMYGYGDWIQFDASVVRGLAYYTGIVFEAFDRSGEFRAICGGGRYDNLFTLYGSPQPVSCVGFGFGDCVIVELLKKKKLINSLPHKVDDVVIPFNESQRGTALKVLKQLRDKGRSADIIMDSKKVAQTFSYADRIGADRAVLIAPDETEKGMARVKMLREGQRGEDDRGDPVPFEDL
UniProt Q4DA54, 1-478: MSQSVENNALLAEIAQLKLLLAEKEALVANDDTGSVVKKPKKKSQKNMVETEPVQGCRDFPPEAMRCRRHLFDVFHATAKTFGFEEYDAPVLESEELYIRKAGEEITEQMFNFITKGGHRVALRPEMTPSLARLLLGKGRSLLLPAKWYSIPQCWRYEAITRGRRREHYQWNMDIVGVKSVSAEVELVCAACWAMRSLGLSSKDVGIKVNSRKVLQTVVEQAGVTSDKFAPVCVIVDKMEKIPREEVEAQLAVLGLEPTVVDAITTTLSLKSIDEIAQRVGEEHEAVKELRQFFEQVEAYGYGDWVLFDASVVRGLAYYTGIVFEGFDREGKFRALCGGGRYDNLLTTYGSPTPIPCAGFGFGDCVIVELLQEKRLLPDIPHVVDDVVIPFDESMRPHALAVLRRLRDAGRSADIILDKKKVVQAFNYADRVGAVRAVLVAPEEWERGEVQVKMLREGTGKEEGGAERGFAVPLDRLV

Source: ChEMBL document CHEMBL3988442, “University of Dundee, Small-Polar-MMV Screening Library” (2021).

Results are given as percent effect.
How 0% and 100% were set is not recorded. Most values in the screen are low, and negative values occur.
This is an unselected part of the compounds tested.
A dash means the value is not listed here; it may have been measured.

Pks13 thioesterase: 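Enzyme assay of the thioesterase domain of polyketide synthase 13; the read-out is not stated. Target: Polyketide synthase Pks13, Mycobacterium tuberculosis (UniProt I6X8D2). Concentration: 30 µM. The record gives no direction; the compounds picked for IC50 retests had high values, so higher reads as stronger inhibition. About 67,000 compounds were tested under these conditions; 0.46% (about 300) showed 50% or more at least once.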
PfKRS1: 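Lysine-tRNA ligase, Plasmodium falciparum 3D7 (UniProt Q8IDJ8). Enzyme assay of the cytosolic lysyl-tRNA synthetase in 384-well plates, read by luminescence. Tested at 30 µM. Higher reads as stronger inhibition, judged from the few compounds that gave an IC50. Size under these conditions: about 69,000 compounds, about 49 of them at 50% or above in at least one test.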
LiHisRS: 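Enzyme assay of histidyl-tRNA synthetase; the read-out is not stated. Target: Histidine-tRNA ligase, Leishmania infantum (UniProt A4I591). Tested at 30 µM. Direction is inferred from retests: higher values go with stronger inhibition. The assay is labelled LdHisRS but filed under L. infantum. About 69,000 compounds were tested under these conditions; 0.6% (about 410) showed 50% or more at least once.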
TcHisRS: 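Enzyme assay of histidyl-tRNA synthetase; the read-out is not stated. Target: Histidine-tRNA ligase, Trypanosoma cruzi CL Brener (UniProt Q4DA54). Tested at 30 µM. The record gives no direction; compounds that gave an IC50 in retests scored well above the rest, so higher reads as stronger inhibition. Size under these conditions: about 69,000 compounds, about 31 of them at 50% or above in at least one test.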

compound,Pks13 thioesterase,PfKRS1,LiHisRS,TcHisRS
N#Cc1ccnc(N2CCN(CC(O)c3ccc(F)c(F)c3)CC2)c1 (stereo not drawn),7.563%,3.85%,12.12%,4.233%
CC(CNC(=O)c1cccc(-n2cccn2)n1)Cn1ccnc1 (stereo not drawn),-77.09%,0.4431%,29.58%,7.006%
CC(=O)N1CCC(c2c(CN(C)C)cnc3cc(C)nn23)CC1,-9.869%,2.435%,-4.317%,-13.41%
CCn1ccnc1CN1CCCN(C(=O)c2cccn2C)CC1,-15.84%,-1.336%,12.77%,-1.527%
O=C1CCc2cc(S(=O)(=O)NCc3cc4n(n3)CCCNC4)ccc2N1,-,2.596%,16.67%,8.235%
Cc1cc(N)n(-c2ccc3nnc(C)n3n2)n1,-1.276%,7.105%,7.5%,1.242%
Cc1nc(C)n(CC2CCCCN2Cc2nc3ccccc3o2)n1 (stereo not drawn),-28.18%,-1.96%,12.17%,4.023%
CN(C)C(=O)N1CCC(C2C(=O)Nc3ccccc32)CC1 (stereo not drawn),-23.83%,4.864%,21.36%,10.68%
Cc1cnc(CN2CCCC2c2cnn(C)c2)cn1 (stereo not drawn),7.196%,1.776%,22.03%,10.86%
Cc1ccc(N(CC(=O)N2CCCCC2)C(=O)C2CCCO2)cc1 (stereo not drawn),-17.75%,5.685%,21.43%,4.255%
CCS(=O)(=O)N1C[C@H]2CCC[C@@]2(COc2ccccn2)C1,-37.04%,4.163%,9.709%,-2.732%
COCCN1C(=O)[C@H]2CC[C@@H]1CN(S(=O)(=O)c1cccc(Cl)c1)C2,9.73%,-0.8653%,0%,1.786%
CC(c1cccnc1)N(C)Cc1cc2cc3c(cc2[nH]c1=O)OCO3 (stereo not drawn),-0.8958%,-3.747%,16.39%,0.8%
CCN1C(=O)CCC12CCCN(CCc1ccccc1)C2 (stereo not drawn),-31.41%,-2.92%,19.23%,6.796%
c1ccc(-c2n[nH]c(CCNc3nnc(C4CCC4)o3)n2)cc1,-5.983%,7.556%,14.75%,6.061%
CCc1noc(CN(C)C(=O)COc2cc(Cl)cc(Cl)c2)n1,-12.57%,5.24%,13.7%,11.11%
CC(=O)N(Cc1noc(C)n1)C1CCN(Cc2ccon2)C1 (stereo not drawn),-18.04%,0.121%,18.92%,-1.88%
COCCCN(CCOC)C(=O)Nc1ccccc1Br,-16.3%,4.144%,-2.857%,3.261%
Cn1ccnc1COc1ccc(CSc2nnnn2C2CC2)cc1,-14.43%,0.5206%,14.52%,-2.062%
COC(=O)CCNC(=O)c1ccc(OCc2ccccc2)nc1,-4.125%,3.927%,0.8929%,8.621%
Cc1nc(-c2nnc(SCC(=O)O)n2C(C)c2ccccc2)co1 (stereo not drawn),-40.19%,7.888%,26.03%,1.98%
CCOCc1cncc2c1CCN(S(=O)(=O)c1ccc(C)cc1)C2,-34.03%,-2.518%,19.66%,5.882%
CCC1c2ccccc2CCN1CCNS(C)(=O)=O (stereo not drawn),-38.95%,-1.387%,2.073%,4.972%
CCC(C)NC(=O)Cn1ncc2c1c(C)nn2CC (stereo not drawn),23.74%,-1.165%,0%,4.95%
Cc1ccc([C@@H]2CN(C(=O)c3ccccc3C)C[C@H]2N(C)C)cc1,-21.81%,5.161%,18.18%,1.212%
c1ccc(-n2cc(CNC3CCc4ncnn4C3)cn2)cc1 (stereo not drawn),-16.3%,-0.2412%,17.09%,7.692%
CC(C)n1nc(Cn2cccn2)c2c1CN(CC1CCOC1)C2 (stereo not drawn),-23.12%,6.525%,15.79%,8.046%
CCCn1nc(C)c(CNC(=O)C2COc3ccc(OC)cc3C2)c1C (stereo not drawn),29.42%,3.408%,22.4%,0%
CN(Cc1ccncn1)C(=O)CCc1[nH]nc2c1CCCC2,10.49%,5.1%,13.99%,1.493%
Cc1cc(C)n(C2CCCN(C(=O)CCCc3ccccn3)C2)n1 (stereo not drawn),-6.984%,-0.6337%,5.263%,2.579%
CCN(CCc1nc2cc(C)ccc2[nH]1)C(=O)COC,-22.56%,1.714%,24.66%,3.784%
Cc1ccc(CN2CCC(F)(F)C3(CCN(c4cnccn4)C3)C2)o1 (stereo not drawn),20.99%,0.3011%,11.54%,2.674%
COc1ccc(C(=O)N2CC[C@@H]3[C@H](CC2)N(C)CCS3(=O)=O)cc1,-17.06%,4.575%,17.11%,8.696%
Cc1nnc2n1CCN(Cc1nc(-c3ccoc3)no1)C2,-21.09%,-1.76%,12.04%,6.745%
Cc1nc(N2CCCC2)ccc1NCc1ccccn1,-2.486%,3.445%,37.04%,7.975%
COc1cccc(CN(Cc2ccco2)Cc2cnc(C)n2C)c1,-11.85%,-0.9119%,12.08%,4.857%
Nc1ncc(C(=O)N2CCCC(N)CC2)c(-c2ccccc2)n1 (stereo not drawn),-0.898%,-3.595%,10.53%,-5.464%
Cn1ncc2c1CCCC2NCc1cccc(OC2CCCC2)c1 (stereo not drawn),-13.26%,0.06352%,16.67%,4.36%
Cc1cnn(CC2CCCN2c2ncnc3ccccc23)c1 (stereo not drawn),1.683%,2.373%,4.202%,7.843%
O=C(Cn1ccnc1)N1C[C@@H]2CC[C@H](Oc3ccccc3F)[C@@H]2C1,-31.5%,-1.101%,-5.208%,2.128%

Once more, the final 3:

compound,Pks13 thioesterase,PfKRS1,LiHisRS,TcHisRS
Cn1ncc2c1CCCC2NCc1cccc(OC2CCCC2)c1 (stereo not drawn),-13.26%,0.06352%,16.67%,4.36%
Cc1cnn(CC2CCCN2c2ncnc3ccccc23)c1 (stereo not drawn),1.683%,2.373%,4.202%,7.843%
O=C(Cn1ccnc1)N1C[C@@H]2CC[C@H](Oc3ccccc3F)[C@@H]2C1,-31.5%,-1.101%,-5.208%,2.128%